{"source": "PubChem BioAssay AID1259254 (NCATS, 2017)", "screen": "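Finding genes that stop cells copying their DNA twice in one cycle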 (primary screen)", "cell system": "human HCT116 colorectal cancer cells", "knock-down reagent": "single siRNA against human genes", "time to read-out": "3 days", "measured": "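Nuclei stained with Hoechst and imaged; cell-cycle phase assigned by DNA content; G2 share scaled per plate, non-targeting siRNA 0%, GMNN siRNA 100%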", "reading the numbers": "G2 robust z-score: higher = more G2 cells, more excess DNA replication", "rule for the call": "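An siRNA counts as active if its G2 robust z-score lies at least 5 MADs above the screen median; here such calls match roughly 38% of GMNN control or more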", "note": "In all, the deposit lists about 59,000 reagents; below is a part drawn at random. Over the whole deposit, about 1,550 (2.6%) got an active call. 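G2 share is only a proxy for re-replication; each gene was hit by three separate siRNAs, and active genes were retested.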 A number with no mark means an inactive call. Not all columns of the deposit are shown. Not stated in the record: the amount of reagent."}
{"gene": "GNAI2", "PubChem SID": "SID160771888", "G2 robust z-score": -1.23}
{"gene": "GNAI2", "PubChem SID": "SID160771897", "G2 robust z-score": -0.917}
{"gene": "GNAI2", "PubChem SID": "SID160771905", "G2 robust z-score": -0.0346}
{"gene": "SPACA1", "PubChem SID": "SID160751000", "G2 robust z-score": -1.35}
{"gene": "SPACA1", "PubChem SID": "SID160751002", "G2 robust z-score": 1.51}
{"gene": "SPACA1", "PubChem SID": "SID160751003", "G2 robust z-score": -0.455}

Sorted by “G2 robust z-score” (low to high): 2 of the entries above
{"gene": "SPACA1", "PubChem SID": "SID160751000", "G2 robust z-score": -1.35}
{"gene": "SPACA1", "PubChem SID": "SID160751002", "G2 robust z-score": 1.51}

Continued:
{"gene": "C9orf153", "PubChem SID": "SID160766275", "G2 robust z-score": -0.33}
{"gene": "C9orf153", "PubChem SID": "SID160766276", "G2 robust z-score": 0.131}
{"gene": "C9orf153", "PubChem SID": "SID160766277", "G2 robust z-score": -0.305}
{"gene": "HOXB8", "PubChem SID": "SID160731079", "G2 robust z-score": 2.39}
{"gene": "HOXB8", "PubChem SID": "SID160775212", "G2 robust z-score": 0.859}
{"gene": "HOXB8", "PubChem SID": "SID160775214", "G2 robust z-score": -0.211}
